# The other results are listed elsewhere or left out.
# Protein sequences, listed by entry. Tags and fused reporters are not part of them. Lines headed by an entry give the natural chain unless they say otherwise; changes in a name come on top.
# UniProt P29144: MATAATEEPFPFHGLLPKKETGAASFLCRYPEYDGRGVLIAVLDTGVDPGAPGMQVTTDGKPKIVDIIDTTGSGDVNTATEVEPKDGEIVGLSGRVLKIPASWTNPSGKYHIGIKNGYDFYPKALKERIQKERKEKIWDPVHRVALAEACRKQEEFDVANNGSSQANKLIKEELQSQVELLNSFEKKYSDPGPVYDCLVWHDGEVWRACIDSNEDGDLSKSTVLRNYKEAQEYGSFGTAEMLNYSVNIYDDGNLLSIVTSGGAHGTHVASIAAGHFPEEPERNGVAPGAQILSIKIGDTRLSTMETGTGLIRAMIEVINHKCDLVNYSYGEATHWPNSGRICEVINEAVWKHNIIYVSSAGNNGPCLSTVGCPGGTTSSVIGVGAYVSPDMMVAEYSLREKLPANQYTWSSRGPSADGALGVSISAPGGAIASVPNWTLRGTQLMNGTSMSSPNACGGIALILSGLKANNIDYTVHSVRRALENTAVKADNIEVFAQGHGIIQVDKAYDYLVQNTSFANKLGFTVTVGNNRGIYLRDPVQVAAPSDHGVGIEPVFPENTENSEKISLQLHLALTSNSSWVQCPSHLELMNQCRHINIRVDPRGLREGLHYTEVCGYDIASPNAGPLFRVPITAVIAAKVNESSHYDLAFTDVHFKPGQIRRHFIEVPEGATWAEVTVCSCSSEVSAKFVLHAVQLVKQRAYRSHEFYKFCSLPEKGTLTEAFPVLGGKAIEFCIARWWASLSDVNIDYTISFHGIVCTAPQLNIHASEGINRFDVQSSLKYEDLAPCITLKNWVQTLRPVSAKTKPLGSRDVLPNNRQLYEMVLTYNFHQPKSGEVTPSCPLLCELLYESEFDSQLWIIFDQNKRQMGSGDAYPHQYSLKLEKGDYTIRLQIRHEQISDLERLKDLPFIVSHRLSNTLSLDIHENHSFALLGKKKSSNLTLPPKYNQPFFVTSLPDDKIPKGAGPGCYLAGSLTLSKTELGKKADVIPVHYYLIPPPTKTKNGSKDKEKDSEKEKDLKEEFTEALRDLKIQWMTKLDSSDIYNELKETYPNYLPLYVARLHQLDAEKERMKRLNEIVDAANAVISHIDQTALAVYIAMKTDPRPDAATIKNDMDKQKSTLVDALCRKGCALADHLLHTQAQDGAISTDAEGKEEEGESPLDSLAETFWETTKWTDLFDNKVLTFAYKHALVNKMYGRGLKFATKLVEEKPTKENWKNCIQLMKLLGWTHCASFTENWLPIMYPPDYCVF
# UniProt Q8IZ69: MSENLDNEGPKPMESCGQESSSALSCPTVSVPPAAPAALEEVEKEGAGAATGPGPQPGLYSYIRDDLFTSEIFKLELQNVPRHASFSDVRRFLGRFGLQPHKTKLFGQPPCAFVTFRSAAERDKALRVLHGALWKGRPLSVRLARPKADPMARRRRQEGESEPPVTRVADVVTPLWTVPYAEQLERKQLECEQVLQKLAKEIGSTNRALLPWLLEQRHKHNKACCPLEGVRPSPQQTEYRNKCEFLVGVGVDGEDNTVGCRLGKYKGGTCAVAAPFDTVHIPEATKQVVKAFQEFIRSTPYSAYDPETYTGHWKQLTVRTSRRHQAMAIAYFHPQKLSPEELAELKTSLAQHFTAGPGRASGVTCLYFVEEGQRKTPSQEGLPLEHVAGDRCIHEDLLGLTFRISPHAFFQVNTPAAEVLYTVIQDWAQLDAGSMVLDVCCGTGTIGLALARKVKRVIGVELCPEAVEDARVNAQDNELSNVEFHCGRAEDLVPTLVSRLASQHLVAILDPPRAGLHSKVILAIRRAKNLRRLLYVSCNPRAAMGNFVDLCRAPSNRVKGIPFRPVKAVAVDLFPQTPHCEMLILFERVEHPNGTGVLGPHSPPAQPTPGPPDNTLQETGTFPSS
# UniProt Q9NQ86: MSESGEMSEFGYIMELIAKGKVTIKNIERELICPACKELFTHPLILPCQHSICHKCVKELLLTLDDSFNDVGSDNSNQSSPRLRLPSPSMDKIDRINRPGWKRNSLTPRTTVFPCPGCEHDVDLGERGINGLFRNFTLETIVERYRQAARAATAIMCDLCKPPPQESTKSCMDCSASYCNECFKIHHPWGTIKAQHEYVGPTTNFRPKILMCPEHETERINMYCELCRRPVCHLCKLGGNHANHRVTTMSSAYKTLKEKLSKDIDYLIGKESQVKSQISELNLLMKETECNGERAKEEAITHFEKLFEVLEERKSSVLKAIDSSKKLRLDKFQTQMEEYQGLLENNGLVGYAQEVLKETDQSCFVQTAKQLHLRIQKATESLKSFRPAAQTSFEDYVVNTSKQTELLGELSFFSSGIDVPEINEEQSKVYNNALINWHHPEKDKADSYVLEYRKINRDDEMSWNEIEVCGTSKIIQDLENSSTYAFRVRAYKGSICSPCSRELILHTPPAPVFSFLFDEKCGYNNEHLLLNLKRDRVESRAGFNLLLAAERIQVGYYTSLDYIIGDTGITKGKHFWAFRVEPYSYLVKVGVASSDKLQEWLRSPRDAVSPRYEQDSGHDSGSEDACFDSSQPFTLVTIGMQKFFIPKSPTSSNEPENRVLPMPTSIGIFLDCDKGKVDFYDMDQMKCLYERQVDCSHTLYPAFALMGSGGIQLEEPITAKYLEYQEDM
# UniProt Q96F44: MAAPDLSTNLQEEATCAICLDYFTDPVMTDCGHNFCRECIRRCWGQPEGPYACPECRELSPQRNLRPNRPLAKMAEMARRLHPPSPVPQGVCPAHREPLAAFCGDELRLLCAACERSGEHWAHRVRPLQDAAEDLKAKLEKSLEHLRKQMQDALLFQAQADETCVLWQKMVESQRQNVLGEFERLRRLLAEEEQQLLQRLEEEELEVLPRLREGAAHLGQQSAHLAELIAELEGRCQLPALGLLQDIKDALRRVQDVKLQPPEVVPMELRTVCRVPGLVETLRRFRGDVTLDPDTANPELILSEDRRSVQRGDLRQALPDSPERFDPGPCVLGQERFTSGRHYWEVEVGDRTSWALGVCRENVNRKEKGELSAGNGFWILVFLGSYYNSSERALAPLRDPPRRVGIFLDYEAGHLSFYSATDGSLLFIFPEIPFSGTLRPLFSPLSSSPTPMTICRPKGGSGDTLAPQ
# UniProt Q12933: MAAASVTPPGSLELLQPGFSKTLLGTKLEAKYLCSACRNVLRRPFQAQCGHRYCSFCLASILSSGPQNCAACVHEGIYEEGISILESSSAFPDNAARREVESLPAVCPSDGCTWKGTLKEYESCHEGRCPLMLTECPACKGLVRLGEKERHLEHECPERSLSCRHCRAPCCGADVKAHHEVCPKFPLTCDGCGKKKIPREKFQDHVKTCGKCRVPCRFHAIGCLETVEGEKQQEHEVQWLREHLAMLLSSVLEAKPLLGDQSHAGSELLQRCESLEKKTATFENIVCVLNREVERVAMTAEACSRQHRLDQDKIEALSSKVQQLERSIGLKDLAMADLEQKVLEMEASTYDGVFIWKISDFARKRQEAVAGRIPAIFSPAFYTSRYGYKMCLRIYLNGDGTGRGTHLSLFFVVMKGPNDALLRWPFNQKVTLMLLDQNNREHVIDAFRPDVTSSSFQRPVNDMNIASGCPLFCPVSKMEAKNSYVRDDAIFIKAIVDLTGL
# UniProt Q9Y228: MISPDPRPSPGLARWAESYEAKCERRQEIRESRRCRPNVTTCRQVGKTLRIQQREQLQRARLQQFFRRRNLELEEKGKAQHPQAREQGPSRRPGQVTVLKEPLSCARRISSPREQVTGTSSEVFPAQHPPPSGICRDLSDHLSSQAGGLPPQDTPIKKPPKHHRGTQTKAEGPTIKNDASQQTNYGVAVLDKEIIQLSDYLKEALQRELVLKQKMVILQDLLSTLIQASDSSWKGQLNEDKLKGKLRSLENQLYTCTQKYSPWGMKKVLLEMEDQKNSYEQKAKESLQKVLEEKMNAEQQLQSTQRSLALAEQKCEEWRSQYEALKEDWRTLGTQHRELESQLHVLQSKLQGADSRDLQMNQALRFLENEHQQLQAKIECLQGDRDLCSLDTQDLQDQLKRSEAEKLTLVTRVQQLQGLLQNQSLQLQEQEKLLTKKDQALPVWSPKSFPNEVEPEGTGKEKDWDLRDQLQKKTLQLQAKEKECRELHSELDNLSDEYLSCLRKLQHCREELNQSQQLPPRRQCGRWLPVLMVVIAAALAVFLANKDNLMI
# UniProt Q14669: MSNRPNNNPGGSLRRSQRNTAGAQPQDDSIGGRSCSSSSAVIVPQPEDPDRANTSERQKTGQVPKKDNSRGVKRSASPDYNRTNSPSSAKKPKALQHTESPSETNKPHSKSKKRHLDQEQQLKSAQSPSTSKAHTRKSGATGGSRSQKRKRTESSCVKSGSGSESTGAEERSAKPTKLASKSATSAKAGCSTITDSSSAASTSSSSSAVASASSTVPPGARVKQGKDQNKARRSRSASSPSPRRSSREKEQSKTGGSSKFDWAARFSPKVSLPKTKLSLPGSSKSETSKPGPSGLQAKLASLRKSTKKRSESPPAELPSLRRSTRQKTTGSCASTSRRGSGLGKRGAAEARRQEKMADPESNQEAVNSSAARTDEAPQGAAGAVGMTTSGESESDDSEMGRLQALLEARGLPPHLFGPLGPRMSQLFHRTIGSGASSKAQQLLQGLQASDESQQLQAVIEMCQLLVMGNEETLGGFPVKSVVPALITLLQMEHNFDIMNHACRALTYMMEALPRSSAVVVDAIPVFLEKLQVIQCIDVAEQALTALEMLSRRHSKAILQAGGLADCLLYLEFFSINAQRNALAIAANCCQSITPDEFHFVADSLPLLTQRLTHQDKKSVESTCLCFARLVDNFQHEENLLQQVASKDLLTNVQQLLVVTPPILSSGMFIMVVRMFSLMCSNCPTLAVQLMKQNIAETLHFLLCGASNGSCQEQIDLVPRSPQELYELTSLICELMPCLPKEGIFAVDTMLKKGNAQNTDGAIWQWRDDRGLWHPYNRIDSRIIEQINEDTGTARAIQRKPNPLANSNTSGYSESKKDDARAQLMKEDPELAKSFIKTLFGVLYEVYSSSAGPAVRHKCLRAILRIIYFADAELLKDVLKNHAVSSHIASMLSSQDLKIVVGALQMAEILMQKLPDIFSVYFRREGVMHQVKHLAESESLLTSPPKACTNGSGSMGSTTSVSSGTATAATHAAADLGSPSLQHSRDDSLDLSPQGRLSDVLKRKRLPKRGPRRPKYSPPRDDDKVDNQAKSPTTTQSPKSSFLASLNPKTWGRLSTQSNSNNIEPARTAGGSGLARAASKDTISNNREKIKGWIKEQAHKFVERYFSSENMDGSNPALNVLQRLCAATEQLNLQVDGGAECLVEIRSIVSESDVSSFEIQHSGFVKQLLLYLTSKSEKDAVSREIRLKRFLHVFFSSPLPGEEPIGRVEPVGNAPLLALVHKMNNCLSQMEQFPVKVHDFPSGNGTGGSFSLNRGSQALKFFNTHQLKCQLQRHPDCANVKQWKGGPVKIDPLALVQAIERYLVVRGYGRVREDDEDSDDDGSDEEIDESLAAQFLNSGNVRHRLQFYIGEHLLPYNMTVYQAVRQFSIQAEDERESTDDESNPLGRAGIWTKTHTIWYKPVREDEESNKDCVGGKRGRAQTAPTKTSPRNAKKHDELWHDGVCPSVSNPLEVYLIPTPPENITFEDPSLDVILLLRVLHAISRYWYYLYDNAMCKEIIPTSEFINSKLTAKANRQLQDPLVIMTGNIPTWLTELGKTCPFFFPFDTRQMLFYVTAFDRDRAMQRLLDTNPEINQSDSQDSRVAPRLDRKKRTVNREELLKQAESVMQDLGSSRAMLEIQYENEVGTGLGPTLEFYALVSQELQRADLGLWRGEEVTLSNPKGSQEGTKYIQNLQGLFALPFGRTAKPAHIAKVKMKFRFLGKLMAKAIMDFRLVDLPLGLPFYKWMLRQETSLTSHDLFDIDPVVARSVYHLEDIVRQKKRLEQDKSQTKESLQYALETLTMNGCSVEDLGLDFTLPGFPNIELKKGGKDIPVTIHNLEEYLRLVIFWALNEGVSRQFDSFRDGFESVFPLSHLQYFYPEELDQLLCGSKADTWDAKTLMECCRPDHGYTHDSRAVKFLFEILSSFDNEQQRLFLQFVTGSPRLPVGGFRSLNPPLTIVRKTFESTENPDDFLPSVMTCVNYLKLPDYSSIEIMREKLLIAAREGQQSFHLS
# UniProt O00635: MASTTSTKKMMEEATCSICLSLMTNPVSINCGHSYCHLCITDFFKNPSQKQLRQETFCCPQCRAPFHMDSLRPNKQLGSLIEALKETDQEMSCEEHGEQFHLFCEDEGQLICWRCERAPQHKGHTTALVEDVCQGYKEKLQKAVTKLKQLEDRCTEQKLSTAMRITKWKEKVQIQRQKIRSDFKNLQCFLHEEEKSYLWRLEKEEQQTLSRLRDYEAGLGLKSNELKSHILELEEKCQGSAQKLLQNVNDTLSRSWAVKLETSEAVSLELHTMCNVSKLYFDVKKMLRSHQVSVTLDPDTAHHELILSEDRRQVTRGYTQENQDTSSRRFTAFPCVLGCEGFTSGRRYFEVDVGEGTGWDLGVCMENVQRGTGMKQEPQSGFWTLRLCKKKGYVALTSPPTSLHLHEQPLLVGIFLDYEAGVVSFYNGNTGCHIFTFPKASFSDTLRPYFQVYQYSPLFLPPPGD
# Compound: Cc1cc(ccc1-c1ccccc1)C(=O)N1CCCN(CC1)C(=O)CCl [compound 10]
# Experiment: probe-labelled cysteine peptide fold change vs DMSO (competition) (log2 fold change); higher = less target engagement (more negative = stronger competition)
# Conditions: THP-1, incubation time: 4 h
# 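Further: competitive profiling in live THP-1 cells: cysteine peptides tagged with an iodoacetamide desthiobiotin (IA-DTB) probe, intensity after compound treatment relative to DMSO-treated cells.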
Target,probe-labelled cysteine peptide fold change (10 µM),probe-labelled cysteine peptide fold change (50 µM)
TRAFD1_O14545_83_HEETECPLR (UniProt O14545),-0.13,-0.0815
TRIM25_Q14258_127_TCLVCMASFCQEHLQPHFDSPAFQDHPLQPPVR (UniProt Q14258),-0.278,-0.34
TPP2_P29144_197_KYSDPGPVYDCLVWHDGEVWR (UniProt P29144),-0.0978,-0.234
TRMT1L_Q7Z2T5_491_KIQYLIHCQWCEER (UniProt Q7Z2T5),-0.0601,-0.0491
TRIM25_Q14258_174+176+179_LREFFCPEHSECICHICLVEHK (UniProt Q14258),-0.202,-0.763
TRIM25_Q14258_176_LREFFCPEHSECICHICLVEHK (UniProt Q14258),-0.0323,-0.0765
TRIM13_O60858_25_VLPCSHNFCK (UniProt O60858),0.00631,-0.119
TPRN_Q4KMQ1_489_LPYLPHPARPLHPARPGCVAELQPR (UniProt Q4KMQ1),-0.407,-0.401
TRIP13_Q15645_14_QALPCVAESPTVHVEVHQR (UniProt Q15645),-0.252,-0.19
TRMT2A_Q8IZ69_243+260_CEFLVGVGVDGEDNTVGCR (UniProt Q8IZ69),-0.214,-0.0652
TPP1_O14773_365_GLTLLFASGDSGAGCWSVSGR (UniProt O14773),-0.146,0.0356
TRIM28_Q13263_221_HEPLVLFCESCDTLTCR (UniProt Q13263),0.0644,0.275
TRIM25_Q14258_110_ASAPSPNAQVACDHCLK (UniProt Q14258),-0.0981,-0.283
TRIM36_Q9NQ86_521_CGYNNEHLLLNLKR (UniProt Q9NQ86),-0.144,-0.402
TRIM11_Q96F44_236_CQLPALGLLQDIK (UniProt Q96F44),0.0308,0.288
TRIM33_Q9UPN9_786_QEPGTEDEICSFSGGVK (UniProt Q9UPN9),-0.145,0.28
TRAPPC8_Q9Y2L5_1074_HTAIICTSR (UniProt Q9Y2L5),0.0487,0.328
TRIM25_Q14258_70_NTVLCNVVEQFLQADLAR (UniProt Q14258),-0.125,-0.0132
TRIM26_Q12899_334_CVTYTSLYK (UniProt Q12899),0.0635,0.15

Target,probe-labelled cysteine peptide fold change (10 µM),probe-labelled cysteine peptide fold change (50 µM)
TRAPPC9_Q96Q05_904_QCHLLLDVFNSTEHELTVSTR (UniProt Q96Q05),0.181,0.0773
TRAF2_Q12933_124_EYESCHEGR (UniProt Q12933),-0.114,-0.518
TPP2_P29144_28_KETGAASFLCR (UniProt P29144),-0.0537,-0.321
TRAF3IP3_Q9Y228_135_EQVTGTSSEVFPAQHPPPSGICR (UniProt Q9Y228),0.0655,-0.00386
TRAP1_Q12931_573_SPAAECLSEKETEELMAWMR (UniProt Q12931),-0.236,-0.989
TRIM28_Q13263_651_VCQKPGDLVMCNQCEFCFHLDCHLPALQDVPGEEWSCSLCHVLPDLK (UniProt Q13263),0.159,0.13
TRAF3IP3_Q9Y228_35_CRPNVTTCR (UniProt Q9Y228),0.0625,0.0955
TRIM25_Q14258_186_TCSPASLSQASADLEATLR (UniProt Q14258),0.0421,0.444
TRIP12_Q14669-3_77_RSCSSSSAVIVPQPEDPDRANTSER (UniProt Q14669),0.0506,-0.279
TPX2_Q9ULW0_364_ICRDPQTPVLQTK (UniProt Q9ULW0),0.0934,0.254
TRIM21_P19474_285_TCAVHITLDPDTANPWLILSEDRR (UniProt P19474),0.135,0.137
TRIT1_Q9H3H1_298_CTLETSNQLLK (UniProt Q9H3H1),-0.177,-0.245
TRMT2A_Q8IZ69_191_QLECEQVLQK (UniProt Q8IZ69),-0.0728,-0.0245
TRIP12_Q14669_1411_DCVGGK (UniProt Q14669),-0.186,-0.298
TRIM14_Q14142_151_EQADSCR (UniProt Q14142),-0.129,-0.0879
TRIM38_O00635_104_ETDQEMSCEEHGEQFHLFCEDEGQLICWR (UniProt O00635),-0.123,-0.801
TRIM36_Q9NQ86_53_ELFTHPLILPCQHSICHK (UniProt Q9NQ86),0.112,0.018
TRANK1_O15050_1930_QHGCLLEAAR (UniProt O15050),-0.0687,-0.106
